Assay results taken from publication PMC12390941, “Ubiquitin-specific protease 7-mediated stabilization of discoidin domain receptor 1 drives progression of TP53-Mutant cancers” (The Journal of Biological Chemistry, 2025).
No constants are given. Whether binding was seen depends on the method and setting. In cells and extracts the contact can be indirect. A yes stands for co-enrichment or nearness to the bait. Other partners may have been found.

Protein sequences, listed by entry. Tags and fused reporters are not part of them. Residues count along the entry.
UniProt Q08345, residues 19-913: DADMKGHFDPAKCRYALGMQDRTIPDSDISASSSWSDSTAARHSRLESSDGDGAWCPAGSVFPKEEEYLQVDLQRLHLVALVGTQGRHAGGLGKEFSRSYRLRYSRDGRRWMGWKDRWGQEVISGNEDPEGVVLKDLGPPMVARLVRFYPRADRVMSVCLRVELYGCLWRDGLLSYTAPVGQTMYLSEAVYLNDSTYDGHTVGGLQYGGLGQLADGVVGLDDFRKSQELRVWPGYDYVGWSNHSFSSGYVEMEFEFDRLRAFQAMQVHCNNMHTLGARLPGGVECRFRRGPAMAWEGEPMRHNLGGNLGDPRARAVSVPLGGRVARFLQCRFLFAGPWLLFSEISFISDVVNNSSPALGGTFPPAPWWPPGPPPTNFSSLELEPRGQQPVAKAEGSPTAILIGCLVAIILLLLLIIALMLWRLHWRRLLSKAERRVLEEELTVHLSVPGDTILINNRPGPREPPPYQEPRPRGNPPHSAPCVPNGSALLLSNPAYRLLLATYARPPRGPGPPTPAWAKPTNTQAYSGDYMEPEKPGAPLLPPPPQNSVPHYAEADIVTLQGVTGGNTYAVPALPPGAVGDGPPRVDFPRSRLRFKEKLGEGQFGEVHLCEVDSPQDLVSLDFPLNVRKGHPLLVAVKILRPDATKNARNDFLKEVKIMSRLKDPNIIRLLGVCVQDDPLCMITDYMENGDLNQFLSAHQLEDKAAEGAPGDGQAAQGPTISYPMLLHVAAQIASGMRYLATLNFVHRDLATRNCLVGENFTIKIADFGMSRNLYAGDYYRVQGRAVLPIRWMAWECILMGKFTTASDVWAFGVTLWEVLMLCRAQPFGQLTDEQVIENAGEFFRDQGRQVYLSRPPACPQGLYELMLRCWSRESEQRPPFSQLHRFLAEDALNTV
UniProt Q93009: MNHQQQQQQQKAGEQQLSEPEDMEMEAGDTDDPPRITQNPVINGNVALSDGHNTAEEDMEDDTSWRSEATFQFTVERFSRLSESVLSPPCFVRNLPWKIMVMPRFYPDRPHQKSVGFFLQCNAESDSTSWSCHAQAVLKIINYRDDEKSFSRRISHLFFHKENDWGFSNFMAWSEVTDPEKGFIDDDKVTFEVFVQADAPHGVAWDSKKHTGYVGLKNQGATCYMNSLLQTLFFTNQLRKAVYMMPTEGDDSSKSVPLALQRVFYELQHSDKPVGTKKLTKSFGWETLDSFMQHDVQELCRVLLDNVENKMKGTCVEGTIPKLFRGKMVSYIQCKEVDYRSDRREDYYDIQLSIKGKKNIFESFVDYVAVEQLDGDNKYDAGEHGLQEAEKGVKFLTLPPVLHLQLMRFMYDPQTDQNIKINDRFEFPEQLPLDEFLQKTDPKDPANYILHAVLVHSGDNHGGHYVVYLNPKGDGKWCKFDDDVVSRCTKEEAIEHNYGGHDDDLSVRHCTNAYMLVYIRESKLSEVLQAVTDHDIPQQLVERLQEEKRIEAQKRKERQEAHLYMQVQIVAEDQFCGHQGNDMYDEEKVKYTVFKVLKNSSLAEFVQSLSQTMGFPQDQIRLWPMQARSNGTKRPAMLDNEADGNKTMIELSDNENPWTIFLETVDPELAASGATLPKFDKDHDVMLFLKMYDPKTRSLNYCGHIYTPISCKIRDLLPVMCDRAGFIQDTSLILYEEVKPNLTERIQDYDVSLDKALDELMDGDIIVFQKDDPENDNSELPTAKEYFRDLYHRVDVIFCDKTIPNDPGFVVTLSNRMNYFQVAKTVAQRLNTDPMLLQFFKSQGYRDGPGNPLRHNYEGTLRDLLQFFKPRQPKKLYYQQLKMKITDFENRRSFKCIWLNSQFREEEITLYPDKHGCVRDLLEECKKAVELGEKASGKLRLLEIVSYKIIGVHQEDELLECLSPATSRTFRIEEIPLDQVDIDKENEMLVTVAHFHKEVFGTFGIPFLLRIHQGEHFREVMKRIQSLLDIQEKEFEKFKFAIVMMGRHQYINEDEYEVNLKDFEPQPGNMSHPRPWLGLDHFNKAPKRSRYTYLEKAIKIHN

Biological target: Discoidin Domain Receptor 1 (endogenous, A549 cells) (human (endogenous in A549)) (UniProt Q08345)
Experiment: affinity purification with mass spectrometry; immunoprecipitation of endogenous DDR1 from A549 cells, enzymatic digestion, LC-MS

Ubiquitin-specific protease 7 (endogenous, A549 cells) (from UniProt Q93009 1-1102) (enzyme)
binding: binds
